# Experimental data from PubChem BioAssay AID652136 (The Scripps Research Institute Molecular Screening Center, 2013).
# The list shows a part of the results, in another mix than the full data. The source made the active and inactive calls.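 The calls were made as follows: active = inhibition above the mean of all tested compounds plus 3 SD (cut at about 3% in these data); inactive = the rest.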
# Experiment: SF-1 AF-2 mutant transactivation artefacts – cell-based, luminescence, counter-screen for DAX1 inhibitor project (AID 652136);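 also: 0% = DAX-1 transfected cells with DMSO and 100% = cells without DAX-1 with DMSO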
# Conditions: HEK293 StAR-luciferase, SF-1 AF2 mutant, at 6.8 µM, active compounds read high
row,SMILES,inhibition
1,O=C(C=Cc1ccccc1)Nc1ccccc1,active: 9.21%
